These are yes or no findings as the source states them, for the method shown. In cells and extracts the contact can be indirect. Some results given as binding are weak or reduced against the parent protein; the word gives no strength. For part of these data: Sequences can lack the tags named with a protein.
T1: Inscuteable (Insc), endogenous in embryos (Drosophila (endogenous in embryos)) (UniProt Q24367)
T1 sequence: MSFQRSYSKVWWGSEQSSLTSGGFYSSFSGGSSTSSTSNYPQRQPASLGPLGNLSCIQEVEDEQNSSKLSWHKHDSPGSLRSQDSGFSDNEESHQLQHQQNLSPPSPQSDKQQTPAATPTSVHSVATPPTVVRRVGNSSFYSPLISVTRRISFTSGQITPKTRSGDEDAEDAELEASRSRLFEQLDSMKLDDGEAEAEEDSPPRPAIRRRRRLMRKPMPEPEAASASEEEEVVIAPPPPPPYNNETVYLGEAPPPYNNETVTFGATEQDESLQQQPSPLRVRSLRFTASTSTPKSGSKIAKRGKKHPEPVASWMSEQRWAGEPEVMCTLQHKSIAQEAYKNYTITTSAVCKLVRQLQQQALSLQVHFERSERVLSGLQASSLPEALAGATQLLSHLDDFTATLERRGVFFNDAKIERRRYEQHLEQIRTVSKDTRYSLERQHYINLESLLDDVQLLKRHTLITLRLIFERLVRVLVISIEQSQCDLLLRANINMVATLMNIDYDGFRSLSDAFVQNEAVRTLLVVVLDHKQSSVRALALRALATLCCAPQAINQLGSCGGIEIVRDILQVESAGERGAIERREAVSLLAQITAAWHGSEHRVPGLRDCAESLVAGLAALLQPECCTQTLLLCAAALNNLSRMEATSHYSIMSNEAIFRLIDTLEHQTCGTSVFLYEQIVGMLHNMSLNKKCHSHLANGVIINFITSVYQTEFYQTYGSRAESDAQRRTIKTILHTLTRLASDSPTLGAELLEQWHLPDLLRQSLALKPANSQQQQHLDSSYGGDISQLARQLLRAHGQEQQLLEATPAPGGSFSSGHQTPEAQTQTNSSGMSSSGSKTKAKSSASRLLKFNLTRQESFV

T2: Bazooka (Baz, Par3), endogenous in embryos (Drosophila (endogenous in embryos)) (UniProt O96782)
T2 sequence: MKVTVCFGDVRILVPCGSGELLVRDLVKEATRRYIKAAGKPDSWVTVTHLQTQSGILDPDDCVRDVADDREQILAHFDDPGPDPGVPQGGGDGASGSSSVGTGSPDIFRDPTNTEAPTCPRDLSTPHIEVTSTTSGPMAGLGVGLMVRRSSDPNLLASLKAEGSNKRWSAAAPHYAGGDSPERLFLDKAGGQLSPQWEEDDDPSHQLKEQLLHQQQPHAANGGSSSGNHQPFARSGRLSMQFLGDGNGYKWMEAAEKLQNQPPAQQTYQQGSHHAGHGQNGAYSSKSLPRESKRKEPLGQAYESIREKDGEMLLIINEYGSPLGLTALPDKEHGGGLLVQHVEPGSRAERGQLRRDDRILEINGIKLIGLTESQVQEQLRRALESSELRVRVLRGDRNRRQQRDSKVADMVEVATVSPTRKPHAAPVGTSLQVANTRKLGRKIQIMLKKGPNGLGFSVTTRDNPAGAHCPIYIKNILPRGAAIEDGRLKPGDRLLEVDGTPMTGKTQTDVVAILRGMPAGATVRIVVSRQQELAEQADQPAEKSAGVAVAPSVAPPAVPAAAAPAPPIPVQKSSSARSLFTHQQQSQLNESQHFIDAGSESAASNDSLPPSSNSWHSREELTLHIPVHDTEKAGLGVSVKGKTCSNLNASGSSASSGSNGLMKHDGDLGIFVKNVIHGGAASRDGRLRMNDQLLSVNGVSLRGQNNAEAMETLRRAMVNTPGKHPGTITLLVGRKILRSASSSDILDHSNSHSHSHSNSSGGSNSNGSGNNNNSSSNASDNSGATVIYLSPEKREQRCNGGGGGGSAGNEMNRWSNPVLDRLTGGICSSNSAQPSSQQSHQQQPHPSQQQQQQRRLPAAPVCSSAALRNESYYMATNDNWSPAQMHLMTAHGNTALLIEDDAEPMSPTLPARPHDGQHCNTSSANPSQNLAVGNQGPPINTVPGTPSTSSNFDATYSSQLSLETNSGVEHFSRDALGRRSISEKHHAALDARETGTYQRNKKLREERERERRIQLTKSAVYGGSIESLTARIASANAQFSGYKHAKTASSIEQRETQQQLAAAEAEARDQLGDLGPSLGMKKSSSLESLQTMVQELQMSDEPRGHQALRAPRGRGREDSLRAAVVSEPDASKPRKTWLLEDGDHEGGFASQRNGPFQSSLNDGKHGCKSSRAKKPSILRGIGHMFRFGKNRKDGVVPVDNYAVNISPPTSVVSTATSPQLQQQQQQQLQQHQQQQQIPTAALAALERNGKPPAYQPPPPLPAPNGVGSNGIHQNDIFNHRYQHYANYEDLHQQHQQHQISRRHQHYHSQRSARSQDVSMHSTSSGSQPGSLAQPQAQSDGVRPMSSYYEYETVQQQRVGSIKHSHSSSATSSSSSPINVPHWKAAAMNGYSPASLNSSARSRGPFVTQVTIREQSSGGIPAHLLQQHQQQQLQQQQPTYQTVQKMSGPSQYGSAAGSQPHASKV

T3: Myc-tagged Baz (Bazooka, Par3) (Drosophila) (UniProt O96782)
T3 sequence: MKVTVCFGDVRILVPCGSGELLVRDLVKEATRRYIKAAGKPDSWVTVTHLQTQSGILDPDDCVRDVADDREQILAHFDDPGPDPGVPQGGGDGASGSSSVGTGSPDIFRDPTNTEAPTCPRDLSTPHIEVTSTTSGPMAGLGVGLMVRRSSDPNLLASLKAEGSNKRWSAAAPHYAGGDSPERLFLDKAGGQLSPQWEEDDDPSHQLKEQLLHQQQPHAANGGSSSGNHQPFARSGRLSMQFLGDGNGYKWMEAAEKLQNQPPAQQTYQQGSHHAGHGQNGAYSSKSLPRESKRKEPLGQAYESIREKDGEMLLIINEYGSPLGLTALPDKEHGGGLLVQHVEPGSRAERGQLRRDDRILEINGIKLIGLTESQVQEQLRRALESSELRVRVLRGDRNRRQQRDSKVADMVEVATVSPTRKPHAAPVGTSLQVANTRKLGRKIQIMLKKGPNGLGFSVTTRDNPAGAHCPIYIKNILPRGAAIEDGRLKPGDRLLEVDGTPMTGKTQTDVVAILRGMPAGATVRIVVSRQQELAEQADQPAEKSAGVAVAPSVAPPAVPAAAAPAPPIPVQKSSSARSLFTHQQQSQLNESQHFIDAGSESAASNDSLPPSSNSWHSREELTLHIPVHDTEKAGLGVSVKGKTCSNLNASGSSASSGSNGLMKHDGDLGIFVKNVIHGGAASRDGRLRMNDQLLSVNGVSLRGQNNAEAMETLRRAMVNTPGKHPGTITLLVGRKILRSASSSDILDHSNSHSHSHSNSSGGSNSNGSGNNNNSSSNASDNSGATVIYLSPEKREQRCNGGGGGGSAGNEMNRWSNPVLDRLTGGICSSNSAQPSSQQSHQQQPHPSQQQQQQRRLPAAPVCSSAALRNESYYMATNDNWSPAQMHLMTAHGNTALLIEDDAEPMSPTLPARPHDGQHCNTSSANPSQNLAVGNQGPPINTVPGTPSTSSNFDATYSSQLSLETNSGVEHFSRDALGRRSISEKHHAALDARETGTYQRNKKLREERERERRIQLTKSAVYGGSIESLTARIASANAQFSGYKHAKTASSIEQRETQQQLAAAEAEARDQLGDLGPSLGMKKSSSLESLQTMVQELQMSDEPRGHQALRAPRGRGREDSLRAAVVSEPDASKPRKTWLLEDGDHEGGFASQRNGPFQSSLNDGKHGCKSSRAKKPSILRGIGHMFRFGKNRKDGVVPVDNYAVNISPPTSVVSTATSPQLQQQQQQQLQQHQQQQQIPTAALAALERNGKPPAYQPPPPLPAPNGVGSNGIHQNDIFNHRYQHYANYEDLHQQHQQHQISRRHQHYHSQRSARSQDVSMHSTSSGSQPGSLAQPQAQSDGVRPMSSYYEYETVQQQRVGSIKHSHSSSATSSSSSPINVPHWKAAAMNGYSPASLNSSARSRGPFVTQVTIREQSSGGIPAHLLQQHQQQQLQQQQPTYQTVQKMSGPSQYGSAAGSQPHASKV


Tests used:
Test in all cases: co-IP
[1] = biological target: T1, Inscuteable (Insc), endogenous in embryos (Drosophila (endogenous in embryos))
[2] = biological target: T2, Bazooka (Baz, Par3), endogenous in embryos (Drosophila (endogenous in embryos))
[3] = biological target: T3, Myc-tagged Baz (Bazooka, Par3) (Drosophila)

binding [1] | binding [2] | binding [3] | Binder
binds | binds | – | armadillo (arm)/β-catenin, endogenous in embryos (protein, UniProt P18824 1-843) MSYMPAQNRTMSHNNQYNPPDLPPMVSAKEQTLMWQQNSYLGDSGIHSGAVTQVPSLSGKEDEEMEGDPLMFDLDTGFPQNFTQDQVDDMNQQLSQTRSQRVRAAMFPETLEEGIEIPSTQFDPQQPTAVQRLSEPSQMLKHAVVNLINYQDDAELATRAIPELIKLLNDEDQVVVSQAAMMVHQLSKKEASRHAIMNSPQMVAALVRAISNSNDLESTKAAVGTLHNLSHHRQGLLAIFKSGGIPALVKLLSSPVESVLFYAITTLHNLLLHQDGSKMAVRLAGGLQKMVTLLQRNNVKFLAIVTDCLQILAYGNQESKLIILASGGPNELVRIMRSYDYEKLLWTTSRVLKVLSVCSSNKPAIVDAGGMQALAMHLGNMSPRLVQNCLWTLRNLSDAATKVEGLEALLQSLVQVLGSTDVNVVTCAAGILSNLTCNNQRNKATVCQVGGVDALVRTIINAGDREEITEPAVCALRHLTSRHVDSELAQNAVRLNYGLSVIVKLLHPPSRWPLIKAVIGLIRNLALCPANHAPLREHGAIHHLVRLLMRAFQDTERQRSSIATTGSQQPSAYADGVRMEEIVEGTVGALHILARESHNRALIRQQSVIPIFVRLLFNEIENIQRVAAGVLCELAADKEGAEIIEQEGATGPLTDLLHSRNEGVATYAAAVLFRMSEDKPQDYKKRLSIELTNSLLREDNNIWANADLGMGPDLQDMLGPEEAYEGLYGQGPPSVHSSHGGRAFHQQGYDTLPIDSMQGLEISSPVGGGGAGGAPGNGGAVGGASGGGGNIGAIPPSGAPTSPYSMDMDVGEIDAGALNFDLDAMPTPPNDNNNLAAWYDTDC
– | – | binds | Flag-Insc (Inscuteable) (protein, UniProt Q24367 1-859) MSFQRSYSKVWWGSEQSSLTSGGFYSSFSGGSSTSSTSNYPQRQPASLGPLGNLSCIQEVEDEQNSSKLSWHKHDSPGSLRSQDSGFSDNEESHQLQHQQNLSPPSPQSDKQQTPAATPTSVHSVATPPTVVRRVGNSSFYSPLISVTRRISFTSGQITPKTRSGDEDAEDAELEASRSRLFEQLDSMKLDDGEAEAEEDSPPRPAIRRRRRLMRKPMPEPEAASASEEEEVVIAPPPPPPYNNETVYLGEAPPPYNNETVTFGATEQDESLQQQPSPLRVRSLRFTASTSTPKSGSKIAKRGKKHPEPVASWMSEQRWAGEPEVMCTLQHKSIAQEAYKNYTITTSAVCKLVRQLQQQALSLQVHFERSERVLSGLQASSLPEALAGATQLLSHLDDFTATLERRGVFFNDAKIERRRYEQHLEQIRTVSKDTRYSLERQHYINLESLLDDVQLLKRHTLITLRLIFERLVRVLVISIEQSQCDLLLRANINMVATLMNIDYDGFRSLSDAFVQNEAVRTLLVVVLDHKQSSVRALALRALATLCCAPQAINQLGSCGGIEIVRDILQVESAGERGAIERREAVSLLAQITAAWHGSEHRVPGLRDCAESLVAGLAALLQPECCTQTLLLCAAALNNLSRMEATSHYSIMSNEAIFRLIDTLEHQTCGTSVFLYEQIVGMLHNMSLNKKCHSHLANGVIINFITSVYQTEFYQTYGSRAESDAQRRTIKTILHTLTRLASDSPTLGAELLEQWHLPDLLRQSLALKPANSQQQQHLDSSYGGDISQLARQLLRAHGQEQQLLEATPAPGGSFSSGHQTPEAQTQTNSSGMSSSGSKTKAKSSASRLLKFNLTRQESFV

— publication doi:10.1101/2022.06.05.494812
